Library screening results

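Viability assay of Plasmodium falciparum sporozoites; the read-out is not stated. The concentration is filed as 10 mM, unlikely as a test dose, so the dose is not known. Direction is inferred from retests: higher values go with lower viability. Strong results were mostly tested again. Of about 34,000 compounds tested this way, about 280 (0.84%) reached 50% or more in at least one test.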

Each number is a percent effect as filed. How 0% and 100% were set is not recorded. Most values in the screen are low, and negative values occur. Compounds were drawn at random from those tested, without regard to their results. Two or more numbers in one place are separate tests of the same structure; such repeats can differ widely.

SMILES: O=C(O)C(F)(F)F.O=C(O)C(F)(F)F.O=C(O)C(F)(F)F.[H][C@@]12OCCN(Cc3cccc(C)n3)[C@@]1([H])CC[C@@H]2OCc1ccncc1
Percent Effect: 6.078

SMILES: Cc1oc(-c2ccco2)nc1CC(=O)N1CCN(C2CCC2)CC1
Percent Effect: -13.18

SMILES: COc1c(C2CCCN2C(=O)c2ccnc(C)n2)c(C)nn1C (stereo not shown)
Percent Effect: 8.81

SMILES: Cc1cc(-c2cnc(NC3CCCC3)nc2-c2ccoc2C)on1
Percent Effect: -12.44

SMILES: O=C(O)C(F)(F)F.[H][C@@]12CN(Cc3ccoc3)C[C@]1([H])C(=O)N(Cc1ccc(OC)cc1)C2
Percent Effect: -8.212

SMILES: CC(C)N1CCOCC2(CN(Cc3nccs3)CCO2)C1.O=C(O)C(F)(F)F.O=C(O)C(F)(F)F (stereo not shown)
Percent Effect: -5.251

SMILES: CC(C)(C)Oc1ccc(NCC(=O)NCc2ccco2)cc1
Percent Effect: -11.28

SMILES: COc1ccc(C(=O)N2CCCCC2c2nccs2)c(OC)c1 (stereo not shown)
Percent Effect: -1.481

SMILES: Cc1cnccc1NCCn1ccnc1C1CCOC1 (stereo not shown)
Percent Effect: -15.66

SMILES: CC(C)c1ncc2c(n1)CN(Cc1nnc(Cc3ccccc3)o1)CC2
Percent Effect: -3.307

SMILES: O=C(CCCNc1ncccn1)N1CCCC(n2ccnc2)C1 (stereo not shown)
Percent Effect: -9.556

SMILES: CNc1cncc(C2CCCN2Cc2cccc(C)n2)n1 (stereo not shown)
Percent Effect: -0.6695

SMILES: Cn1cnnc1C1CCCN(C(=O)c2cc(Cl)c3c(c2)OCO3)C1 (stereo not shown)
Percent Effect: -19.36

SMILES: O=C1CN(C(=O)C2CN(c3cccc(Cl)c3)CCO2)CCN1 (stereo not shown)
Percent Effect: 3.988

SMILES: CN(C)[C@@H]1CCN(C(=O)c2ccco2)[C@H]1Cc1cnn(C)c1.O=C(O)C(F)(F)F
Percent Effect: -1.649

SMILES: CCOCC1c2c(ncn2C)CCN1C(=O)c1ccoc1 (stereo not shown)
Percent Effect: 12.49

SMILES: CN1CCN(C(=O)c2cccn2C)c2ccccc2C1
Percent Effect: 3.86

SMILES: COc1ccc(OCCNC(=O)N2CCS(=O)(=O)CC2)cc1
Percent Effect: 6.871

SMILES: Cc1n[nH]c2c1C(c1ccsc1)SCC(=O)N2 (stereo not shown)
Percent Effect: 3.464

SMILES: O=C(Cn1ccc2ccc(Cl)cc21)/N=c1\[nH]nc(C2CCCO2)s1 (stereo not shown)
Percent Effect: -9.799

SMILES: CN(CC(=O)NCc1ccccn1)CC1CCCN1c1cccnn1 (stereo not shown)
Percent Effect: -9.696

SMILES: O=C(O)C(F)(F)F.[H][C@@]12OCCN(C(=O)N3CCCC3)[C@@]1([H])CC[C@@H]2Oc1ccccn1
Percent Effect: -13.26

SMILES: Cc1cc(C(=O)N2CCCC2c2nc(C)cc(O)n2)on1 (stereo not shown)
Percent Effect: -10.6

SMILES: O=C(c1ccc(Cl)c(Cl)c1)N1CCCCC1C1OCCO1 (stereo not shown)
Percent Effect: -23.31

SMILES: CN(C)C(=O)N1CCn2cc(CNC(=O)CC3CC3)nc2C1
Percent Effect: 11.78

SMILES: Cc1ccc(C(O)CNC(=O)NCc2csc(C)n2)cc1 (stereo not shown)
Percent Effect: 4.193 & -14.16 & -2.879

SMILES: O=C(c1cnc(-c2cnccn2)s1)N1CCCC1Cn1cccn1 (stereo not shown)
Percent Effect: 8.784

SMILES: CC(=O)Nc1ccc2nn(C(C)C)cc2c1
Percent Effect: -11.9

SMILES: O=C(O)C(F)(F)F.O=C(O)C(F)(F)F.c1cc(CN2CCC3(CC2)CC(N2CCCC2)CO3)co1 (stereo not shown)
Percent Effect: 2.053

SMILES: CCOc1ccccc1-n1c(C2CC(=O)N(C)C2)n[nH]c1=O (stereo not shown)
Percent Effect: 12.53

SMILES: Cc1ncc(C(=O)N2CCOC(C(=O)N3CCCCC3)C2)c(C)n1 (stereo not shown)
Percent Effect: -17.9

SMILES: Cc1ccc(OCC(=O)NS(=O)(=O)c2cccnc2)cc1C
Percent Effect: -1.484

SMILES: COCCN1CCC(CNC(=O)C2(c3cccc(Cl)c3)CC2)C1 (stereo not shown)
Percent Effect: 3.695

SMILES: COc1cccc(N2CCC(CNC(=O)N(C)Cc3ccco3)C2)c1 (stereo not shown)
Percent Effect: 4.796

SMILES: COc1ccc(C)cc1C(C)NC(=O)CCn1cncn1 (stereo not shown)
Percent Effect: -7.537

SMILES: CN1CC2(CCN(C(=O)c3cccnc3)CC2)c2cccc(F)c21.Cl
Percent Effect: -8.666

SMILES: [H][C@]12CC[C@]([H])(CN(C3Cc4ccccc4C3)C1)N(C(=O)CNC(N)=O)C2
Percent Effect: -6.92

SMILES: CCOC(=O)CN1C(=O)CN(S(C)(=O)=O)CCC(OC)c2ccccc21 (stereo not shown)
Percent Effect: -30.25

SMILES: CS(=O)(=O)c1snnc1C1CCCN(Cc2ccncc2)C1 (stereo not shown)
Percent Effect: -4.645

SMILES: Cl.Cn1cc(CN(Cc2ccccc2)Cc2ccccn2)cn1
Percent Effect: 16.38

SMILES: Cc1nccc(C2CN(Cc3ccc(-c4ccccc4C(=O)O)o3)C2)n1
Percent Effect: 1.9

SMILES: CC(C)c1nc(C2CCCN(C(=O)CCn3ccnc3)C2)no1 (stereo not shown)
Percent Effect: 7.52

For reference, 3 entries once more:

SMILES,Percent Effect
CCOc1ccccc1-n1c(C2CC(=O)N(C)C2)n[nH]c1=O (stereo not shown),12.53
O=C(O)C(F)(F)F.O=C(O)C(F)(F)F.c1cc(CN2CCC3(CC2)CC(N2CCCC2)CO3)co1 (stereo not shown),2.053
Cn1cnnc1C1CCCN(C(=O)c2cc(Cl)c3c(c2)OCO3)C1 (stereo not shown),-19.36

Source: ChEMBL document CHEMBL3988442, “University of Dundee, Small-Polar-MMV Screening Library” (2021).